# These are yes or no findings as the source states them, for the method shown. Binding seen in cells or lysates may run through a third protein. A yes stands for co-enrichment or nearness to the bait. Other partners may have been found.
# By UniProt entry, the sequences of proteins in these tests, tags left out.
# UniProt F5HID2: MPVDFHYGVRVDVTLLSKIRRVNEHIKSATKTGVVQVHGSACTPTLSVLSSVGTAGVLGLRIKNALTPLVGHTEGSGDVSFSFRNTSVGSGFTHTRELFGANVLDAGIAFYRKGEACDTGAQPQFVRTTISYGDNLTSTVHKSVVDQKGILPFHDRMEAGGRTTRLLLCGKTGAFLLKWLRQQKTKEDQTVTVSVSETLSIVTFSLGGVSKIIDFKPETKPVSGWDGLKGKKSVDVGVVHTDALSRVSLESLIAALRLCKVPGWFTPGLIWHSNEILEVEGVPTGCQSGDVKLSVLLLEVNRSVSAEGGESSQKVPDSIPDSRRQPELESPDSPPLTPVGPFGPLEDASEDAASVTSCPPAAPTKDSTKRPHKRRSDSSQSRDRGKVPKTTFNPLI
# Target: Flag-epitope tagged ORF59 (BAC16-ORF59Flag) (KSHV (human herpesvirus 8)) (UniProt F5HID2)
# Test: affinity purification with mass spectrometry
row,Binder,binding
1,"ORF36 (protein, UniProt F5HGH5 1-444) MRWKRMERRPPLTPLRRSRTQSSGGGLTICPRCALKLPKATRISERPWASTWQLNQHIQVSKTKKATAYLKAPREWGQCTHQDPDWSKRLGRGAFGIIVPISEDLCVKQFDSRREFFYEAIANDLMQATRERYPMHSGGSRLLGFVQPCIPCRSIVYPRMKCNLLQLDWSQVNLSVMAAEFTGLMAAVSFLNRYCGMVHCDVSPDNILATGDLTPMNPGRLVLTDFGSVALHSGSKWTNLVVTSNLGFKQHCYDFRVPPKLICKHLYKPSCVLFQCYLSSLGKMHAQVLDQPYPISPNMGLTIDMSSLGYTLLTCLELYLDLPLNNPLKFLGSATRDGRPEPMYYLGFMIPRVVMTQILSAVWTMTLDLGLDCTGKAQAIPMRQEHQLAFQKQCYLYKANQKAESLANCSDKLNCPMLKSLVRKLLERDFFNHGGHPHTRGLVF",binds
2,"Guanine nucleotide binding protein-like 3 (Nucleolar), isoform CRA_b (protein, UniProt Q9BVP2 1-549) MKRPKLKKASKRMTCHKRYKIQKKVREHHRKLRKEAKKRGHKKPRKDPGVPNSAPFKEALLREAELRKQRLEELKQQQKLDRQKELEKKRKLETNPDIKPSNVEPMEKEFGLCKTENKAKSGKQNSKKLYCQELKKVIEASDVVLEVLDARDPLGCRCPQVEEAIVQSGQKKLVLILNKSDLVPKENLESWLNYLKKELPTVVFRASTKPKDKGKITKRVKAKKNAAPFRSEVCFGKEGLWKLLGGFQETCSKAIRVGVIGFPNVGKSSIINSLKQEQMCNVGVSMGLTRSMQVVPLDKQITIIDSPSFIVSPLNSSSALALRSPASIEVVKPMEAASAILSQADARQVVLKYTVPGYRNSLEFFTVLAQRRGMHQKGGIPNVEGAAKLLWSEWTGASLAYYCHPPTSWTPPPYFNESIVVDMKSGFNLEELEKNNAQSIRAIKGPHLANSILFQSSGLTNGIIEEKDIHEELPKRKERKQEEREDDKDSDQETVDEEVDENSSGMFAAEETGEALSEETTAGEQSTRSFILDKIIEEDDAYDFSTDYV",binds
3,"tRNA-splicing ligase RtcB homolog (protein, UniProt Q9Y3I0 1-505) MSRSYNDELQFLEKINKNCWRIKKGFVPNMQVEGVFYVNDALEKLMFEELRNACRGGGVGGFLPAMKQIGNVAALPGIVHRSIGLPDVHSGYGFAIGNMAAFDMNDPEAVVSPGGVGFDINCGVRLLRTNLDESDVQPVKEQLAQAMFDHIPVGVGSKGVIPMNAKDLEEALEMGVDWSLREGYAWAEDKEHCEEYGRMLQADPNKVSARAKKRGLPQLGTLGAGNHYAEIQVVDEIFNEYAAKKMGIDHKGQVCVMIHSGSRGLGHQVATDALVAMEKAMKRDKIIVNDRQLACARIASPEGQDYLKGMAAAGNYAWVNRSSMTFLTRQAFAKVFNTTPDDLDLHVIYDVSHNIAKVEQHVVDGKERTLLVHRKGSTRAFPPHHPLIAVDYQLTGQPVLIGGTMGTCSYVLTGTEQGMTETFGTTCHGAGRALSRAKSRRNLDFQDVLDKLADMGIAIRVASPKLVMEEAPESYKNVTDVVNTCHDAGISKKAIKLRPIAVIKG",binds
4,"Isoform 2 of DNA replication licensing factor MCM3 (protein, UniProt P25205-2 1-853) MLPRSPPLPRGNLWWREEFGSFRAGVESSWEPPRDFGGGSSLAAGMAGTVVLDDVELREAQRDYLDFLDDEEDQGIYQSKVRELISDNQYRLIVNVNDLRRKNEKRANRLLNNAFEELVAFQRALKDFVASIDATYAKQYEEFYVGLEGSFGSKHVSPRTLTSCFLSCVVCVEGIVTKCSLVRPKVVRSVHYCPATKKTIERRYSDLTTLVAFPSSSVYPTKDEENNPLETEYGLSVYKDHQTITIQEMPEKAPAGQLPRSVDVILDDDLVDKAKPGDRVQVVGTYRCLPGKKGGYTSGTFRTVLIACNVKQMSKDAQPSFSAEDIAKIKKFSKTRSKDIFDQLAKSLAPSIHGHDYVKKAILCLLLGGVERDLENGSHIRGDINILLIGDPSVAKSQLLRYVLCTAPRAIPTTGRGSSGVGLTAAVTTDQETGERRLEAGAMVLADRGVVCIDEFDKMSDMDRTAIHEVMEQGRVTIAKAGIHARLNARCSVLAAANPVYGRYDQYKTPMENIGLQDSLLSRFDLLFIMLDQMDPEQDREISDHVLRMHRYRAPGEQDGDAMPLGSAVDILATDDPNFSQEDQQDTQIYEKHDNLLHGTKKKKEKMVSAAFMKKYIHVAKIIKPVLTQESATYIAEEYSRLRSQDSMSSDTARTSPVTARTLETLIRLATAHAKARMSKTVDLQDAEEAVELVQYAYFKKVLEKEKKRKKRSEDESETEDEEEKSQEDQEQKRKRRKTRQPDAKDGDSYDPYDFSDTEEEMPQVHTPKTADSQETKESQKVELSESRLKAFKVALLDVFREAHAQSIGMNRLTESINRDSEEPFSSVEIQAALSKMQDDNQVMVSEGIIFLI",binds
5,"Eukaryotic translation initiation factor 5B (protein, UniProt O60841 1-1220) MGKKQKNKSEDSTKDDIDLDALAAEIEGAGAAKEQEPQKSKGKKKKEKKKQDFDEDDILKELEELSLEAQGIKADRETVAVKPTENNEEEFTSKDKKKKGQKGKKQSFDDNDSEELEDKDSKSKKTAKPKVEMYSGSDDDDDFNKLPKKAKGKAQKSNKKWDGSEEDEDNSKKIKERSRINSSGESGDESDEFLQSRKGQKKNQKNKPGPNIESGNEDDDASFKIKTVAQKKAEKKERERKKRDEEKAKLRKLKEKEELETGKKDQSKQKESQRKFEEETVKSKVTVDTGVIPASEEKAETPTAAEDDNEGDKKKKDKKKKKGEKEEKEKEKKKGPSKATVKAMQEALAKLKEEEERQKREEEERIKRLEELEAKRKEEERLEQEKRERKKQKEKERKERLKKEGKLLTKSQREARARAEATLKLLQAQGVEVPSKDSLPKKRPIYEDKKRKKIPQQLESKEVSESMELCAAVEVMEQGVPEKEETPPPVEPEEEEDTEDAGLDDWEAMASDEETEKVEGNKVHIEVKENPEEEEEEEEEEEEDEESEEEEEEEGESEGSEGDEEDEKVSDEKDSGKTLDKKPSKEMSSDSEYDSDDDRTKEERAYDKAKRRIEKRRLEHSKNVNTEKLRAPIICVLGHVDTGKTKILDKLRHTHVQDGEAGGITQQIGATNVPLEAINEQTKMIKNFDRENVRIPGMLIIDTPGHESFSNLRNRGSSLCDIAILVVDIMHGLEPQTIESINLLKSKKCPFIVALNKIDRLYDWKKSPDSDVAATLKKQKKNTKDEFEERAKAIIVEFAQQGLNAALFYENKDPRTFVSLVPTSAHTGDGMGSLIYLLVELTQTMLSKRLAHCEELRAQVMEVKALPGMGTTIDVILINGRLKEGDTIIVPGVEGPIVTQIRGLLLPPPMKELRVKNQYEKHKEVEAAQGVKILGKDLEKTLAGLPLLVAYKEDEIPVLKDELIHELKQTLNAIKLEEKGVYVQASTLGSLEALLEFLKTSEVPYAGINIGPVHKKDVMKASVMLEHDPQYAVILAFDVRIERDAQEMADSLGVRIFSAEIIYHLFDAFTKYRQDYKKQKQEEFKHIAVFPCKIKILPQYIFNSRDPIVMGVTVEAGQVKQGTPMCVPSKNFVDIGIVTSIEINHKQVDVAKKGQEVCVKIEPIPGESPKMFGRHFEATDILVSKISRQSIDALKDWFRDEMQKSDWQLIVELKKVFEII",binds
6,"ATP-binding cassette sub-family F member 2 (protein, UniProt Q9UG63 1-623) MPSDLAKKKAAKKKEAAKARQRPRKGHEENGDVVTEPQVAEKNEANGRETTEVDLLTKELEDFEMKKAAARAVTGVLASHPNSTDVHIINLSLTFHGQELLSDTKLELNSGRRYGLIGLNGIGKSMLLSAIGKREVPIPEHIDIYHLTREMPPSDKTPLHCVMEVDTERAMLEKEAERLAHEDAECEKLMELYERLEELDADKAEMRASRILHGLGFTPAMQRKKLKDFSGGWRMRVALARALFIRPFMLLLDEPTNHLDLDACVWLEEELKTFKRILVLVSHSQDFLNGVCTNIIHMHNKKLKYYTGNYDQYVKTRLELEENQMKRFHWEQDQIAHMKNYIARFGHGSAKLARQAQSKEKTLQKMMASGLTERVVSDKTLSFYFPPCGKIPPPVIMVQNVSFKYTKDGPCIYNNLEFGIDLDTRVALVGPNGAGKSTLLKLLTGELLPTDGMIRKHSHVKIGRYHQHLQEQLDLDLSPLEYMMKCYPEIKEKEEMRKIIGRYGLTGKQQVSPIRNLSDGQKCRVCLAWLAWQNPHMLFLDEPTNHLDIETIDALADAINEFEGGMMLVSHDFRLIQQVAQEIWVCEKQTITKWPGDILAYKEHLKSKLVDEEPQLTKRTHNV",binds
7,"Proliferation-associated 2G4, 38kDa, isoform CTA (protein, UniProt Q9UQ80 1-394) MSGEDEQQEQTIAEDLVVTKYKMGGDIANRVLRSLVEASSSGVSVLSLCEKGDAMIMEETGKIFKKEKEMKKGIAFPTSISVNNCVCHFSPLKSDQDYILKEGDLVKIDLGVHVDGFIANVAHTFVVDVAQGTQVTGRKADVIKAAHLCAEAALRLVKPGNQNTQVTEAWNKVAHSFNCTPIEGMLSHQLKQHVIDGEKTIIQNPTDQQKKDHEKAEFEVHEVYAVDVLVSSGEGKAKDAGQRTTIYKRDPSKQYGLKMKTSRAFFSEVERRFDAMPFTLRAFEDEKKARMGVVECAKHELLQPFNVLYEKEGEFVAQFKFTVLLMPNGPMRITSGPFEPDLYKSEMEVQDAELKALLQSSASRKTQKKKKKKASKTAENATSGETLEENEAGD",binds
8,"ORF9 (protein, UniProt Q2HRD0 1-1012) MDFFNPFIDPTRGGPRNTVRQPTPSQSPTVPSETRVCRLIPACFQTPGRPGVVAVDTTFPPTYFQGPKRGEVFAGETGSIWKTRRGQARNAPMSHLIFHVYDIVETTYTADRCEDVPFSFQTDIIPSGTVLKLLGRTLDGASVCVNVFRQRCYFYTLAPQGVNLTHVLQQALQAGFGRASCGFSTEPVRKKILRAYDTQQYAVQKITLSSSPMMRTLSDRLTTCGCEVFESNVDAIRRFVLDHGFSTFGWYECSNPAPRTQARDSWTELEFDCSWEDLKFIPERTEWPPYTILSFDIECMGEKGFPNATQDEDMIIQISCVLHTVGNDKPYTRMLLGLGTCDPLPGVEVFEFPSEYDMLAAFLSMLRDYNVEFITGYNIANFDLPYIIARATQVYDFKLQDFTKIKTGSVFEVHQPRGGSDGGNFMRSQSKVKISGIVPIDMYQVCREKLSLSDYKLDTVAKQCLGRQKDDISYKDIPPLFKSGPDGRAKVGNYCVIDSVLVMDLLLRFQTHVEISEIAKLAKIPTRRVLTDGQQIRVFSCLLEAAATEGYILPVPKGDAVSGYQGATVISPSPGFYDDPVLVVDFASLYPSIIQAHNLCYSTLIPGDSLHLHPHLSPDDYETFVLSGGPVHFVKKHKRESLLAKLLTVWLAKRKEIRKTLASCTDPALKTILDKQQLAIKVTCNAVYGFTGVASGILPCLNIAETVTLQGRKMLERSQAFVEAISPERLAGLLRRPVDVSPDARFKVIYGDTDSLFICCMGFNMDSVSDFAEELASITTNTLFRSPIKLEAEKIFKCLLLLTKKRYVGVLSDDKVLMKGVDLIRKTACRFVQEKSSQVLDLILREPSVKAAAKLISGQATDWVYREGLPEGFVKIIQVLNASHRELCERSVPVDKLTFTTELSRPLADYKTQNLPHLTVYQKLQARQEELPQIHDRIPYVFVDAPGSLRSELAEHPEYVKQHGLRVAVDLYFDKLVHAVANIIQCLFQNNTSATVAILYNFLDIPVTFPTP",binds
9,"Non-POU domain-containing octamer-binding protein (protein, UniProt Q15233 1-471) MQSNKTFNLEKQNHTPRKHHQHHHQQQHHQQQQQQPPPPPIPANGQQASSQNEGLTIDLKNFRKPGEKTFTQRSRLFVGNLPPDITEEEMRKLFEKYGKAGEVFIHKDKGFGFIRLETRTLAEIAKVELDNMPLRGKQLRVRFACHSASLTVRNLPQYVSNELLEEAFSVFGQVERAVVIVDDRGRPSGKGIVEFSGKPAARKALDRCSEGSFLLTTFPRPVTVEPMDQLDDEEGLPEKLVIKNQQFHKEREQPPRFAQPGSFEYEYAMRWKALIEMEKQQQDQVDRNIKEAREKLEMEMEAARHEHQVMLMRQDLMRRQEELRRMEELHNQEVQKRKQLELRQEEERRRREEEMRRQQEEMMRRQQEGFKGTFPDAREQEIRMGQMAMGGAMGINNRGAMPPAPVPAGTPAPPGPATMMPDGTLGLTPPTTERFGQAATMEGIGAIGGTPPAFNRAAPGAEFAPNKRRRY",binds
